The target of this test is PSD-95_SH3-GK (truncated construct of PSD-95 containing the SH3 and guanylate kinase (GK) domain) (UniProt P78352). As to the kind of experiment: NMR titration; competition: pDLS titrated into 20 µM 15N-labelled Tau with 120 µM PSD-95_SH3-GK (Tau:PSD-95_SH3GK:pDLS 1:6:6 and 1:6:12); 1H-15N HSQC, 278 K, 50 mM sodium phosphate, pH 6.8, 100 mM Na2SO4, 1 mM DTT; both purified.

Protein sequences, listed by entry. Tags and fused reporters are not part of them. Residues count along the entry.
UniProt P78352, residues 426-721: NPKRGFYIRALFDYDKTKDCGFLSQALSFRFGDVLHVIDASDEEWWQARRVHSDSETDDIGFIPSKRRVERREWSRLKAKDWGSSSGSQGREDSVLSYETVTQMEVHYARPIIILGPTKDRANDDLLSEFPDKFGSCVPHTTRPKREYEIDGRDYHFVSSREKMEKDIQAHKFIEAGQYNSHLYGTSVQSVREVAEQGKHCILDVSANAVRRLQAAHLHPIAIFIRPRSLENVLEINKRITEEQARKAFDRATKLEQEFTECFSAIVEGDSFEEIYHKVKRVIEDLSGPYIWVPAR

Results are given in words; binding and its absence hold for the method and conditions named. Some results given as binding are weak or reduced against the parent protein; the word gives no strength.

B1: pDLS peptide (peptide)
peptide: RIRRESYRRANGQSFDLS
modifications: phosphoserine at position 6 ((p)S); acetylated N-terminus; amidated C-terminus
For the molecule B1, the binding entry is recorded as “binds”.

These data come from paper PMC10611757.
